According to PubChem BioAssay AID504834 (National Center for Advancing Translational Sciences (NCATS), 2011):
Out of some 320,000 compounds screened, about 22,000 (6.9%) were called active. The shares of active, inactive and inconclusive entries below differ from those in the screen. Calls follow the shape of the dose curve; as a rule, active = well fitted inhibition curve with a large enough effect; inconclusive = small, poorly fitted or top-dose-only effect, or another doubt; inactive = no such curve, though single readings can be large or run the other way. Potencies beside an inconclusive call are fits to weak or partial responses and may not hold up. Where a SMILES comes first, the peptide text is derived from it. The star is where a group is joined. Boc = CC(C)(C)OC(=O)*

Test: Primary qHTS for delayed death inhibitors of the malarial parasite plastid, 96 hour incubation
Details: P. falciparum luciferase reporter growth; series mostly up to 28.7 µM; activity change, negative = inhibition: at the top concentration
Method in brief: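 Plates of compound plus infected erythrocytes (2% hematocrit, 0.05% parasitemia final) incubate 96 hours, 37 C, 5% CO2. Detection reagent added; reduced luminescence from the parasites' luciferase reporter flags inhibition.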
% is scaled to controls: 0 for no effect and ±100 for the full control effect; potency is read from the fitted curve at half-maximal effect.

| SMILES | activity change, negative = inhibition | Potency |
| --- | --- | --- |
| COc1cc(/C=C2/C(=N)N3C=CSC3=NC2=O)ccc1OCCCOc1c(C)cccc1C | inactive: 7.75% |  |
| COC(=O)c1ccc(NC(=O)C(=O)N2CCN(C(=S)Nc3cccc(OC)c3)CC2)cc1 | inactive: -13.5% |  |
| CCn1nccc1C(=O)Nc1cc(Cl)ccc1Cl | inactive: -1.46% |  |
| CCCCC(=O)Nc1c2c(nn1-c1ccc(C)cc1)CS(=O)(=O)C2 |  | inconclusive: 4.15 µM [inhibitor, partial curve, poor fit] |
| CCOC(=O)c1cc(Sc2ccccc2N)cc(C(=O)OCC)n1 | inactive: -16.9% |  |
| O=C(NC(=S)Nc1ccc(Oc2ccc(Cl)cc2)cc1)c1ccccc1 |  | inconclusive: 18.5 µM [inhibitor, single point] |
| CCC(/C=C1\Sc2ccc(OC)cc2N1CC)=C\c1sc2ccc(OC)cc2[n+]1CCCS(=O)(=O)[O-] |  | inconclusive: 20.8 µM [inhibitor, partial curve, poor fit] |
| CCOC(=O)CSc1nc2ccccc2c(=O)n1-c1ccc(C(=O)NCCOC)cc1 |  | inconclusive: 8.28 µM [inhibitor, single point] |
| Cc1cccc(-n2ncc3c2CCCC3NC(=O)C2CCOCC2)c1C (centres undefined) | inactive: -14.9% |  |
| CCN(CC(=O)Nc1ccccc1OC)C(=O)CCOc1ccc(C(C)(C)C)cc1 |  | inconclusive: 14.7 µM [inhibitor, partial curve, poor fit] |
| Cn1cccc/c1=N\c1cccc[n+]1C |  | inconclusive: 1.85 µM [inhibitor, full curve] |
| Cc1sc2nc(CN(C(=O)NC3CCCCC3)C3CCCCC3)[nH]c(=O)c2c1C |  | inconclusive: 9.28 µM [inhibitor, single point] |
| O=c1c2c3c(sc2nc2n1CCC2)CCC3 |  | active: 0.329 µM |
| CN1CCN(C(=O)CCCN2C(=O)/C(=C/c3ccc(Cl)cc3)SC2=S)CC1 |  | active: 10.4 µM |
| C=CCn1c(CNS(=O)(=O)c2ccc(Br)cc2)nnc1SC | inactive: -3.42% |  |
| O=C(Cn1cc([N+](=O)[O-])cn1)NCCc1c[nH]c2ccccc12 |  | inconclusive: 1.17 µM [inhibitor, full curve] |
| CCCC(=O)NC(=S)Nc1ccccc1C(=O)OC | inactive: 40% |  |
| COc1cccc(-n2nnnc2SCC(=O)c2ccc(NC(C)=O)cc2)c1 | inactive: 1.82% [at 5.75 µM] |  |
| COC(=O)c1c(-c2ccc(C)cc2)csc1NC(=O)Cc1ccc(OC)c(OC)c1 |  | inconclusive: 8.28 µM [inhibitor, partial curve, poor fit] |
| Cc1ccc(C)c(NC(=O)c2cc(S(=O)(=O)N3CCCCC3)c[nH]2)c1 |  | inconclusive: 2.94 µM [inhibitor, partial curve, poor fit] |
| O=C(c1ccccc1)N(Cc1ccccc1)c1ccccn1 | inactive: -28.5% |  |
| CCN1CCN(CC(=O)c2ccc(OC)cc2)CC1 | inactive: 28.4% |  |
| COc1cc([N+](=O)[O-])cc([N+](=O)[O-])c1NC(=O)N1CCOCC1 | inactive: -1.21% |  |
| CC(C)Oc1ccc(S(=O)(=O)N2CCCCC2)cc1NC(=O)CC1OC(=O)c2ccccc21 (centres undefined) |  | inconclusive: 11.7 µM [inhibitor, partial curve] |
| O=C(Cc1c[nH]c2ccccc12)NCc1cccs1 | inactive: 32.6% |  |

| SMILES | activity change, negative = inhibition | Potency |
| --- | --- | --- |
| COc1ccc(O)c(C(=O)c2cc(C#N)c(=O)n(CC3CCCO3)c2)c1 (centres undefined) |  | inconclusive: 14.7 µM [inhibitor, partial curve, poor fit] |
| COc1ccc(C2C(C(N)=O)=C(C)Nc3nc(-c4ccccc4OC)nn32)cc1OC (centres undefined) |  | inconclusive: 18.5 µM [inhibitor, single point] |
| CCN1CCc2c(OCc3ccc(C(=O)OC)o3)cccc2C1=O |  | inconclusive: 13.1 µM [inhibitor, single point] |
| CCN(CC)C(=O)N1CCc2ccccc21 |  | inconclusive: 10.4 µM [inhibitor, single point] |
| CCOc1ccccc1-n1c(SC(C)C(=O)NCC2CCCO2)nc2ccccc2c1=O (centres undefined) |  | inconclusive: 10.4 µM [inhibitor, partial curve] |
| O=C(CC(Cc1ccccc1)C(=O)O)Nc1ccc(Cl)c(Cl)c1 (centres undefined) |  | inconclusive: 8.28 µM [inhibitor, partial curve] |
| O=C(Nc1ccc(Cl)cc1)C1CCN(C(=O)c2cccs2)CC1 | inactive: 6.28% |  |
| CC(C)(C)OC(=O)NC(Cc1ccccc1)C(=O)N1CCCC1C(=O)O (stereo not drawn) (Boc-Phe-Pro-OH; configuration not given here) | inactive: -27.7% |  |
| N#Cc1c(N)nc2c(c1-c1ccc3c(c1)OCO3)CCCCCC2 |  | inconclusive: 11.7 µM [inhibitor, partial curve, poor fit] |
| Cn1nc(C(F)(F)F)c(/C=N/OC(=O)c2ccc(Cl)cc2)c1Cl | inactive: 84.7% |  |
| Cc1oc2cc(Br)c(O)c(Br)c2c1C(=O)c1ccccc1 | inactive: 14.3% |  |
| Nc1nc(N(Cc2ccccc2)Cc2ccccc2)nc(C(F)(F)F)n1 |  | inconclusive: 18.5 µM [inhibitor, single point] |
| COc1ccc(CCNCc2sccc2C)cc1 |  | inconclusive: 18.5 µM [inhibitor, single point] |
| CN1CCN(NC(=O)Nc2cccc(F)c2)CC1 |  | inconclusive: 18.5 µM [inhibitor, single point] |
| COc1ccc(C2/C=C\CN(Cc3ccncc3)CC(=O)N2Cc2ccc(F)cc2)cc1 (centres undefined) |  | inconclusive: 18.5 µM [inhibitor, single point] |
| CCC1S/C(=N/N=C/c2ccco2)N(Cc2ccc(F)cc2)C1=O (centres undefined) |  | inconclusive: 13.1 µM [inhibitor, single point] |
| COc1cccc([C@@H]2CC=C(C(=O)O)[C@H](c3ccccc3F)N2S(=O)(=O)c2ccc(C)cc2)c1 | inactive: -18% |  |
| O=C(COc1coc(CN2CCc3ccccc3C2)cc1=O)Nc1ccc(F)cc1 |  | inconclusive: 16.5 µM [inhibitor, single point] |
| Cc1c(C(=O)N/N=C/c2ccccc2)[nH]c2c([N+](=O)[O-])cccc12 | inactive: 0% |  |
| COC(=O)CNc1nc(Cl)nc(NC2CCCCC2)n1 |  | active: 5.22 µM |
| Clc1ccc(C2=Nn3c(nnc3-c3n[nH]c4c3CCC4)SC2)cc1Cl |  | inconclusive: 14.7 µM [inhibitor, single point] |
| CC(=O)Nc1ccc(S(=O)(=O)Nc2cccc(-c3cn4cccnc4n3)c2)cc1 | inactive: 7.72% |  |
| CCN1CCN(C(=S)c2ccc(-c3ccccc3)cc2)CC1 |  | inconclusive: 3.29 µM [inhibitor, full curve, poor fit] |
| CCOc1ccc2nc(NC(NC(C)=O)(C(=O)OC)C(F)(F)F)sc2c1 (centres undefined) |  | active: 7.38 µM |
| COc1ccc(COC(=O)C2CCN(S(=O)(=O)c3ccc(OC)c(OC)c3)CC2)cc1 |  | inconclusive: 18.5 µM [inhibitor, single point] |

| SMILES | activity change, negative = inhibition | Potency |
| --- | --- | --- |
| C=CCc1cc(C=O)cc(OCC)c1O | inactive: 25.5% |  |
| O=C(COc1ccccc1)N1CCN=C1SCc1ccccc1 |  | inconclusive: 0.0329 µM [inhibitor, full curve, poor fit] |
| CC(C)Cn1c(N)c(-c2nc(C(C)C)c(C(=O)c3ccccc3F)s2)c(=O)n(C)c1=O |  | inconclusive: 4.15 µM [inhibitor, single point] |
| O=C(CN1CCOCC1)Nc1ccc(Oc2ccc(NC(=O)CN3CCOCC3)cc2)cc1 |  | inconclusive: 13.1 µM [inhibitor, single point] |
| Cc1cc2ccccn2c1C(=O)Nc1cccc(Cl)c1 | inactive: 42% |  |
| COC(=O)C1=C(c2ccccc2OCc2ccccc2)C[C@@H]2CC[C@H]1N2C(=O)NCc1ccccc1 |  | active: 4.15 µM |
| COc1ccc(C)cc1NC(=O)CSc1nnc(-c2ccco2)n1Cc1ccco1 |  | active: 10.4 µM |
| COC(=O)CC1C(=O)NCCN1C(=O)CSc1nnnn1-c1ccc(Cl)cc1 (centres undefined) | inactive: 20.8% |  |
| Cc1ccc(S(=O)(=O)NCc2ccc(C(=O)N3CCN(c4ccccc4)CC3)cc2)cc1 | inactive: -6.17% |  |
| CC(C)Cc1ccc(/C=C/C(=O)N2CCOCC2)cc1 | inactive: 269% |  |
| CCOc1ccc(N2CC(C(=O)NCCc3c[nH]c4ccc(C)cc34)CC2=O)cc1 (centres undefined) | inactive: 26.1% |  |
| CC1C2CCC3C4CC=C5CC(N(C)C)CC[C@@]5(C)C4CC[C@@]32CN1C (some centres undefined) |  | inconclusive: 13.5 µM [inhibitor, partial curve] |
| Nc1nc(-c2ccc3ccccc3c2)cs1 |  | inconclusive: 0.37 µM [inhibitor, partial curve, poor fit] |
| c1ccc2[nH]c(-c3nc4ccccc4[nH]3)nc2c1 |  | inconclusive: 18.5 µM [inhibitor, single point] |
| CC1C(=O)N2CCCc3cc(NC(=O)C4CCCCC4)cc1c32 (centres undefined) |  | inconclusive: 10.4 µM [inhibitor, single point] |
| COc1ccccc1Oc1cc(C#N)c(C#N)cc1-n1nnc2ccccc21 |  | active: 2.33 µM |
| COc1ccc(CN(C(=O)Cc2cccs2)C(C(=O)NC2CCCC2)c2ccncc2)cc1 (centres undefined) |  | active: 14.7 µM |
| c1ccc(CSC2=NNC(c3ccccn3)S2)cc1 (centres undefined) |  | inconclusive: 0.0294 µM [inhibitor, full curve, poor fit] |
| C=CCN(CC=C)C(=S)NC(=O)Cc1cccc2ccccc12 |  | active: 4.15 µM |
| CN1CCc2c(OCC(=O)NC3CCCCC3)cccc2C1=O |  | inconclusive: 13.1 µM [inhibitor, partial curve, poor fit] |
| CSc1nn2c(C(F)(F)F)cc(C(F)(F)F)nc2c1C(=O)O | inactive: 72.1% |  |
| CC1(C)CC(=O)C2=C(C1)O[C@@]1(c3ccsc3)Cc3cc(C#N)ccc3C2O1 |  | inconclusive: 1.51 µM [inhibitor, single point] |
| CCN(CC)S(=O)(=O)c1cccc(C(=O)N/N=C/c2ccc(N3CCOCC3)cc2)c1 | inactive: 29.1% |  |
| COc1ccc(-c2nn(-c3ccccc3)cc2C(=O)N(C)CC(=O)Nc2cccc(F)c2)cc1 |  | inconclusive: 8.28 µM [inhibitor, partial curve, poor fit] |

Arranged by length of the SMILES (ascending): part of the list above.

| SMILES | activity change, negative = inhibition | Potency |
| --- | --- | --- |
| CN1CCc2c(OCC(=O)NC3CCCCC3)cccc2C1=O |  | inconclusive: 13.1 µM [inhibitor, partial curve, poor fit] |
| CC1C(=O)N2CCCc3cc(NC(=O)C4CCCCC4)cc1c32 (centres undefined) |  | inconclusive: 10.4 µM [inhibitor, single point] |
| COc1ccc(C)cc1NC(=O)CSc1nnc(-c2ccco2)n1Cc1ccco1 |  | active: 10.4 µM |
| Cc1ccc(S(=O)(=O)NCc2ccc(C(=O)N3CCN(c4ccccc4)CC3)cc2)cc1 | inactive: -6.17% |  |
